The results in this text go back to article PMC7690953.

Chains of the proteins cited; added tags and fusions are not shown.
UniProt Q01650: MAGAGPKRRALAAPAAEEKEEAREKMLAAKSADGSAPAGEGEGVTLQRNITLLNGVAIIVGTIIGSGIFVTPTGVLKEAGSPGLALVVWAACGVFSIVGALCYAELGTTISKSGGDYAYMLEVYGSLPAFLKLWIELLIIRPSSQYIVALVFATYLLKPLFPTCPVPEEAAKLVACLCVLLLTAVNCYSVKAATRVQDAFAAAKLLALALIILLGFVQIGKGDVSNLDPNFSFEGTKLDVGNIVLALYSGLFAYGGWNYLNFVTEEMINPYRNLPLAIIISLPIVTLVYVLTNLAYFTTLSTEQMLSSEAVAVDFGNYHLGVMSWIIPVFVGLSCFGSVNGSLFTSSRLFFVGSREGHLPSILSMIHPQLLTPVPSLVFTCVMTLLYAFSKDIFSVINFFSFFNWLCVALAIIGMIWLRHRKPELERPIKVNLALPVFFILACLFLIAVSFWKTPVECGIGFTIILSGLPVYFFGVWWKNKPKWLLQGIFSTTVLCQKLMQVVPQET
UniProt Q92536: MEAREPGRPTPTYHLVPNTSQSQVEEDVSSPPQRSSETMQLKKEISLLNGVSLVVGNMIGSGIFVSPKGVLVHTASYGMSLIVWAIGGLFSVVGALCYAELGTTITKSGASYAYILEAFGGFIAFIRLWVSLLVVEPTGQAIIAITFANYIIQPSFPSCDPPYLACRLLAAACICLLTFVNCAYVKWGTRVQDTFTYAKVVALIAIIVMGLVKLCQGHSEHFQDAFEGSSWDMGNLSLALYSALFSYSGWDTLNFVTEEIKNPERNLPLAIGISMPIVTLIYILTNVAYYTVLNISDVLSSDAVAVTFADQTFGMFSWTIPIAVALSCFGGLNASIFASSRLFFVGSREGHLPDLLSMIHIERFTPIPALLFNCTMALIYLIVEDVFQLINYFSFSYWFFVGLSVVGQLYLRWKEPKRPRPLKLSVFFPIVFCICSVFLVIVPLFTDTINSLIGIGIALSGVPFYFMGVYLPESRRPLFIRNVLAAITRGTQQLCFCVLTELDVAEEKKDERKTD

These are yes or no findings as the source states them, for the method shown. In cells and extracts the contact can be indirect. Some binding calls cover weakened binding; strength is not graded here. For part of these data: Where a sequence is shown, tags or fusion partners need not be part of it.

The target of one assay is Kv1.1-nanoluc (human) (UniProt Q09470). Kind of assay: FRET or BRET; live mouse LM fibroblasts co-transfected with Kv1.1-nanoluc (donor) and an mEGFP-tagged acceptor; Nano-Glo live cell assay reagent; emission spectra 400-700 nm; nanoluc-subtracted EGFP emission, AUC normalised to Kv1.1-nanoluc + EGFP-Kv1.1.
The target in assay [1] is T1, Kv1.1-nanoluc (human), Q09470.
T1 chain: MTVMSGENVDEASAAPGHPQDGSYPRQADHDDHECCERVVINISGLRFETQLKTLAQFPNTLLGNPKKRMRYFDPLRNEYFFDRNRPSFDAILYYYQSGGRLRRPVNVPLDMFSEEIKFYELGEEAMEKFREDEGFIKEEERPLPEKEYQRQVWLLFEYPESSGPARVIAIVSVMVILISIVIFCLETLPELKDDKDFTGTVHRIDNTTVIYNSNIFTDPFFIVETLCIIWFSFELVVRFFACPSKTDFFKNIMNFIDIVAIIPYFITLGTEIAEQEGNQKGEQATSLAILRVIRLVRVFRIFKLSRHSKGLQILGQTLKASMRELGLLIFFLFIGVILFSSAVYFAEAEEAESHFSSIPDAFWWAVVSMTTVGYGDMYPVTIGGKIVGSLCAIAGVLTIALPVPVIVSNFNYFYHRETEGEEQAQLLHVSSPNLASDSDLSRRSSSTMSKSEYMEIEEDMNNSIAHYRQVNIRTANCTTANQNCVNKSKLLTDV
Described as above. The following applies: remark: other sources report otherwise.

For EGFP-Slc7a5 (from UniProt Q01650 1-507), in the assay with Kv1.1-nanoluc (human), the binding result is reported as “binds”.
For EGFP-Slc7a6 (from UniProt Q92536 1-515), the binding result with Kv1.1-nanoluc (human) was “no binding”.

B1: Kv1.1-nanoluc, Q09470 1-495 (protein)
chain: T1 chain
Take B1: the binding entry in assay [1] was “binds”.
